In PubChem BioAssay AID445 (National Center for Advancing Translational Sciences (NCATS), 2006):
The list shows a part of the results. Further columns of the screen follow, without active or inactive calls. Most of these compounds were active or inconclusive in the main read-out, so they are no random draw. Potencies come from curve fits of mixed quality, noted in brackets.

Experiment: IkB Signaling
Conditions: ABC-DLBCL IkBa-CBG/CBR dual luciferase ratio (green luciferase fused to IkBa over red control in OCI-Ly3 lymphoma cells), 4 h; measured here: control luc red channel unless noted
Summary of the method: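 In this assay, an IκBα–CBG68 fusion accumulates when IKK-driven degradation is blocked; native CBR normalizes for cell number. OCI-Ly3 cells were treated 4 h with compound and doxycycline, then green and red light read after Chroma-Glo addition.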

Row | SMILES | AC50
1 | COc1ccc(OC)c(CNC(=O)c2nn(C)c3c2CS(=O)(=O)c2ccccc2-3)c1 | 15.8 µM [falling, partial curve]
2 | COc1ccc(N2CCN(C(=O)CN3C(=O)COc4ccc(S(=O)(=O)N5CCC(C)CC5)cc43)CC2)cc1 | 31.6 µM [falling, single point]
3 | Cc1ccc2nc(-c3ccc(C)o3)c(Nc3ccc4c(c3)OCCO4)n2c1 | 15.8 µM [falling, partial curve]
4 | CCOc1cc(CNC(=O)c2ccc3nc(C(C)C)oc3c2)cc(OCC)c1OCC | 20 µM [falling, partial curve, poor fit]
5 | CCCCN(CC)C(=O)c1nn(-c2ccc(OC)cc2)c(=O)c2c1c1ccccc1n2C | 7.94 µM [falling, single point]
6 | COc1ccc(OC)c(CNC(=O)c2ccc3c(c2)c(C)c(C)n3C)c1 | 15.8 µM [falling, partial curve]
7 | O=C(CSc1nc2ncccc2o1)Nc1cccc(C(F)(F)F)c1 | 3.16 µM [rising, partial curve]
8 | CCS(=O)(=O)c1oc(-c2ccc(F)cc2)nc1S(=O)(=O)c1ccccc1 | 5.01 µM [falling, partial curve]
9 | Cc1ccc(NC(=O)C2CCCN2S(=O)(=O)c2ccc3c(c2)CCC(=O)N3)cc1Cl (stereo not drawn) | 12.6 µM [falling, partial curve]
10 | N/C(=N\c1nc2ccccc2o1)NC(=O)C(Cc1ccccc1)N1C(=O)c2ccccc2C1=O (stereo not drawn) | 5.01 µM [falling, full curve]
11 | CC(=O)Nc1cccc(-n2cc3c(c2-c2ccccc2Cl)c(=O)n(C)c(=O)n3C)c1 | 2.51 µM [rising, full curve]
12 | CC(C)(C)NC(=O)NC(=O)COc1ccccc1C#N | 0.126 µM [falling, full curve]
13 | O=C(CCn1ccc2cc(S(=O)(=O)N3CCCC3)ccc21)NCc1ccccc1Br | 25.1 µM [falling, single point]
14 | CCC(C)(C)n1nnnc1CN(Cc1ccco1)Cc1cc2cc3c(cc2[nH]c1=O)OCO3 | 31.6 µM [falling, partial curve]
15 | Cc1cccc(C2CC(=O)Nc3cc4c(cc32)OCO4)c1 (stereo not drawn) | 20 µM [falling, partial curve]
16 | Cc1cc2ccccc2n1CCNC(=O)c1ccc(Br)cc1 | 39.8 µM [falling, partial curve]
17 | CCc1ccc(NC(=O)CN2C(=O)C3(SCC(=O)N3c3ccc(F)c(F)c3)c3ccccc32)cc1 (stereo not drawn) | 15.8 µM [falling, partial curve]
18 | CC(C)c1ccc(OCC(=O)N(Cc2cccs2)C2CCS(=O)(=O)C2)cc1 (stereo not drawn) | 31.6 µM [falling, single point]
19 | Cc1csc(NC(=O)c2ccccc2O)n1 | 6.31 µM [falling, partial curve]
20 | Cc1c(C(=O)Nc2ccc(F)cc2)oc2ccc(S(=O)(=O)N3CCCC3)cc12 | 3.16 µM [falling, full curve, poor fit]
21 | COc1ccccc1OCC(=O)Nc1oc(-c2ccccc2)c(-c2ccccc2)c1C#N | 10 µM [falling, partial curve]

Row | SMILES | AC50
22 | CCC(C(=O)N1CCN(c2ccccc2)CC1)n1c(C)c2cnn(-c3ccccc3)c(=O)c2c1C (stereo not drawn) | 15.8 µM [falling, partial curve]
23 | Cc1nnc(N2CCC(C(=O)NCCC(C)C)CC2)c2nn(-c3ccc(Cl)cc3)c(C)c12 | 7.94 µM [falling, partial curve]
24 | COC(=O)c1ccc(NC(=O)CN2C(=O)CC(c3ccccc3)Sc3ccccc32)cc1 (stereo not drawn) | 0.2 µM [falling, full curve]
25 | CSc1ccc(-c2nnc(NC(=O)c3ccc4c(c3)OCCO4)o2)cc1 | 39.8 µM [falling, single point]
26 | CC(=O)Nc1ccc(OCC(O)CN2CCN(c3ccc(C)c(Cl)c3)CC2)cc1 (stereo not drawn) | 15.8 µM [falling, partial curve]
27 | CCOc1ccc(CNCc2c(C(=O)O)c(C)n(Cc3c(F)cccc3Cl)c2C)cc1OC | 12.6 µM [falling, single point]
28 | Cc1ccc(-c2cn3c(n2)sc2cc(C(=O)NCCCc4ccccc4)ccc23)c(C)c1 | 25.1 µM [falling, single point]
29 | CCOC(=O)c1c(CN2CCOCC2)n(C)c2cc(Br)c(O)c(CN(C)C)c12 | 12.6 µM [falling, partial curve, poor fit]
30 | O=C(Nc1ccc2nc(-c3ccc(Br)o3)[nH]c2c1)c1cccs1 | 12.6 µM [falling, partial curve]
31 | O=C(Nc1ccccc1)OCCOc1ccccc1 | 12.6 µM [falling, partial curve]
32 | CCc1cccc(NC(=O)CN(C)S(=O)(=O)c2ccc3c(c2)CCCN3C(C)=O)c1 | 25.1 µM [rising, partial curve, poor fit]
33 | Cc1ccc2oc(=O)n(CCCOc3ccccc3Cl)c2c1 | 39.8 µM [falling, single point]
34 | CC(CCc1ccccc1)NC(=O)Cn1c(=O)nc(-c2ccccc2)c2ccccc21 (stereo not drawn) | 12.6 µM [falling, partial curve]
35 | CCOC(=O)c1cnc2c(C)c(Cl)ccc2c1Nc1ccc(N2CCOCC2)cc1 | 7.94 µM [falling, partial curve]
36 | Cc1ccccc1Nc1c(-c2cccnc2)nc2ccc(Cl)cn12 | 20 µM [falling, single point]
37 | COc1ccc(C2=C(Nc3ccc(C)cc3C)c3ccccc3C2=O)cc1 | 31.6 µM [falling, partial curve]
38 | Cc1cc(-c2[nH]nc3c2C(c2ccsc2)C(C#N)=C(N)O3)c(C)s1 (stereo not drawn) | 6.31 µM [falling, full curve]
39 | O=C(Cn1cnc2c(cnn2-c2ccccc2)c1=O)OCc1ccccc1 | 39.8 µM [falling, single point]
40 | Cc1ccn2c(=O)cc(COc3cccc(NC(=O)Nc4cccc(Cl)c4C)c3)nc2c1 | 5.01 µM [falling, partial curve]
41 | COc1ccccc1NC(=O)C1=C(C)Nc2nc3ccccc3n2C1c1cccc(OC)c1OC (stereo not drawn) | 31.6 µM [falling, single point]
42 | Cc1ccc(CNC(=O)c2ccc(CS(=O)Cc3cccc(Cl)c3)o2)cc1 (stereo not drawn) | 15.8 µM [falling, single point]

Row | SMILES | AC50
43 | CCC(=O)N1CCN(c2nc(-c3ccccc3)c3c(c2C#N)CCCC3)CC1 | 3.16 µM [falling, partial curve]
44 | CCOc1cc(C(=O)NCC(c2ccc(N(C)C)cc2)N2CCOCC2)cc(OCC)c1OCC (stereo not drawn) | 10 µM [falling, partial curve]
45 | Cc1cccc2c1-c1sc(C(=O)N(C)c3cccc(Cl)c3)cc1CO2 | 31.6 µM [falling, single point]
46 | CC(C)c1cnc2c(c1SCC(=O)NCc1ccccc1Cl)c(=O)n(C)c(=O)n2C | 5.01 µM [falling, partial curve]
47 | O=C(c1ccc2c(c1)N(Cc1cccc(F)c1)C(=O)c1ccccc1S2)N1CCCC1 | 2.51 µM [rising, partial curve]
48 | CSc1ccc(CCNC(=O)CCc2c(C)nc3ncnn3c2C)cc1 | 0.02 µM [falling, full curve, poor fit]
49 | COc1cc2c(cc1OC)C(C)N(C(=O)c1cc3n(n1)C(C(F)(F)F)CC(c1ccco1)N3)CC2 (stereo not drawn) | 39.8 µM [falling, single point]
50 | Cn1nnnc1SCCNCc1cc(Br)ccc1OCc1ccccc1Cl | 39.8 µM [falling, single point]
51 | Cc1ccc(C(=O)Nc2cccc3cccnc23)cc1Cl | 0.316 µM [rising, partial curve, poor fit]
52 | CCOC(=O)CSc1nc2ccc(NC(=O)c3cccc(F)c3)cc2s1 | 20 µM [falling, single point]
53 | O=c1c(NCc2cccs2)nccn1-c1ccc(F)cc1 | 12.6 µM [falling, partial curve]
54 | COc1cccc(NC(=O)CN(CCc2ccccc2)S(=O)(=O)c2ccc(Cl)cc2)c1 | 25.1 µM [falling, single point]
55 | CCOc1ccc(NS(=O)(=O)c2ccc3[nH]c4c(c3c2)CCCCC4)cc1 | 31.6 µM [falling, single point]
56 | O=C(COCc1cc(-c2ccc(F)cc2)on1)Nc1cc(F)ccc1F | 0.0794 µM [falling, full curve]
57 | CCOc1ccccc1NS(=O)(=O)c1ccc2c(c1)oc(=O)n2C | 0.00794 µM [falling, full curve, poor fit]
58 | CCc1cc2c(cc3c(=O)n(CCCC(=O)NCc4cccc(Cl)c4)ncn32)s1 | 10 µM [falling, partial curve]
59 | COc1ccc(NC(=O)c2oc3ccccc3c2NC(=O)Cc2coc3c(C)c(C)ccc23)cc1 | 2.51 µM [falling, full curve]
60 | O=C(Nc1ncc(Cc2ccccc2)s1)C1CCCO1 (stereo not drawn) | 10 µM [falling, partial curve]
61 | Cc1ccc(S(=O)(=O)c2nc(S(=O)(=O)c3ccccc3)sc2NCCCOC(C)C)cc1 | 0.2 µM [rising, full curve, poor fit]
62 | COc1ccc(OC)c(CCNC(=O)CS(=O)(=O)Cc2nc(-c3ccccc3C)oc2C)c1 | 12.6 µM [falling, partial curve]
63 | O=C(CSc1n[nH]c(-c2ccc(F)cc2)n1)NCCc1ccccc1 | 20 µM [falling, single point]

Quoted at random: 5 compounds from above, in no set order.
Row | SMILES | AC50
3 | Cc1ccc2nc(-c3ccc(C)o3)c(Nc3ccc4c(c3)OCCO4)n2c1 | 15.8 µM [falling, partial curve]
59 | COc1ccc(NC(=O)c2oc3ccccc3c2NC(=O)Cc2coc3c(C)c(C)ccc23)cc1 | 2.51 µM [falling, full curve]
34 | CC(CCc1ccccc1)NC(=O)Cn1c(=O)nc(-c2ccccc2)c2ccccc21 (stereo not drawn) | 12.6 µM [falling, partial curve]
58 | CCc1cc2c(cc3c(=O)n(CCCC(=O)NCc4cccc(Cl)c4)ncn32)s1 | 10 µM [falling, partial curve]
27 | CCOc1ccc(CNCc2c(C(=O)O)c(C)n(Cc3c(F)cccc3Cl)c2C)cc1OC | 12.6 µM [falling, single point]
